Results published in PubChem BioAssay AID493014 (National Center for Advancing Translational Sciences (NCATS), 2011).
“And” between values parts separate entries of the source, which are not always exact repeats. Equal values may be shown once. Some of the results follow. Shown are side measurements of this screen, not its main read-out; they come without a call. Most of these compounds were active or inconclusive in the main read-out, so they are no random draw. Potencies come from curve fits of mixed quality, noted in brackets.

Assay: qHTS Assay to Find Inhibitors of Chronic Active B-Cell Receptor Signaling
Details: ABC-DLBCL IkBa-CBG/CBR reporter, luminescence ratio (green luciferase fused to IkBa over red control in TMD8 lymphoma cells), 4 h
Summary of the method: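 Doxycycline induced both beetle luciferases in TMD8 lymphoma cells; IKK-driven degradation limits the IkappaBalpha-fused green signal, while red luminescence normalises for cell number and nonspecific effects. Compounds tested up to 46 uM, 4 hrs.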

[1] = measured here: CBR red luminescence, cell number
[2] = measured here: IkBa-CBG green luminescence

| SMILES | AC50 [1] | AC50 [2] |
| --- | --- | --- |
| COc1cc(/C=C(\C#N)C(=O)NCC2CCCO2)ccc1OCCC(C)C (stereo not given) | 6.31 µM [rising, single point] | – |
| Cc1ccc2cc(CCNS(=O)(=O)c3ccc(Br)cc3)c(=O)[nH]c2c1C | 14.1 µM [falling, partial curve, poor fit] | – |
| Cc1cn([C@H]2C=C[C@@H](CO)O2)c(=O)[nH]c1=O | 10 µM [falling, partial curve] and 20.6 µM [rising, partial curve, poor fit] | – |
| CC1=CC(=C2C=CC(=O)C=C2)C=C(C)N1C | 31.6 µM [rising, single point] | – |
| CC(=O)c1c(C)[nH]c(C(=O)OCC(=O)N(CC(C)C)C2CCS(=O)(=O)C2)c1C (stereo not given) | 13 µM [falling, partial curve] | – |
| Cc1c(C(=O)Nc2ccc(F)c(F)c2)oc2ccc(S(=O)(=O)N3CCCCC3)cc12 | 4.47 µM [falling, full curve, poor fit] | – |
| CC(C)(Oc1ccc(Cl)cc1)C(=O)N/N=C/c1cn[nH]c1-c1ccccc1 | 23.1 µM [falling, partial curve, poor fit] | – |
| CCOc1ccccc1NC(=O)c1c(NC(=O)CCC(=O)O)sc2c1CCCCC2 | 35.5 µM [falling, single point] | – |
| CCC(Sc1nc(C)cc(C)n1)C(=O)O (stereo not given) | 0.708 µM [rising, full curve, poor fit] | – |
| CCOC(=O)c1c(C)[nH]c(C)c1C(=O)Cn1nnc(-c2ccccc2C)n1 | 11.6 µM [rising, partial curve, poor fit] | – |
| COc1ccc(-c2cccc(C3CC=CC4C3C(=O)N(Cc3ccccc3)C4c3ccc4ccccc4c3)c2)cc1 (stereo not given) | 35.5 µM [rising, single point] | – |
| CCCCC(O)(CCCC)C(=O)NN(C(=O)c1cccnc1Cl)c1ccccc1 | 0.1 µM [rising, full curve, poor fit] | – |
| NC(=O)c1ccsc1NC(=O)COC(=O)c1ccc(Cl)c(N)c1 | 8.2 µM [falling, partial curve] | – |
| O=S(=O)(CC(c1ccccc1)N1CCCCC1)c1ccc(Cl)cc1 (stereo not given) | 35.5 µM [rising, single point] | – |
| COCc1cc(=O)[nH]c(SCCS(=O)(=O)c2ccc(C)cc2)n1 | 5.01 µM [falling, full curve, poor fit] | – |
| COC(=O)C(NC(C)=O)(Nc1nc2ccc(S(C)(=O)=O)cc2s1)C(F)(F)F (stereo not given) | 0.00461 µM [rising, full curve, poor fit] | – |
| CN(C)C=NC(=O)c1cc(C(=O)c2ccc(Cl)cc2Cl)c[nH]1 | 20 µM [falling, partial curve, poor fit] | – |
| O=C(/C=C/c1ccc(N2CCCCC2)c([N+](=O)[O-])c1)c1ccc(O)cc1 | 7.08 µM [falling, partial curve, poor fit] | – |
| Oc1ccccc1-c1nc(N2CCCC2)c2ccccc2n1 | 0.651 µM [rising, full curve, poor fit] | – |
| O=C(NC(=S)Nc1cccc2cccnc12)c1ccccc1 | 0.224 µM [falling, full curve] | – |
| NC(=O)NOCc1cccc(Cl)c1 | 14.1 µM [rising, partial curve, poor fit] | – |

| SMILES | AC50 [1] | AC50 [2] |
| --- | --- | --- |
| CCOc1ccccc1-n1c(CNc2ccc(F)cc2)nnc1SCC(=O)NCc1ccco1 | 4.61 µM [falling, full curve] | – |
| O=C(NCCc1ccc(F)cc1)Nc1ccccc1 | 22.4 µM [falling, single point] | – |
| CC1CCN(c2nc3ccc(C(=O)NCCCN4CCCCC4C)cc3s2)CC1 (stereo not given) | 0.398 µM [falling, full curve, poor fit] | – |
| COc1ccc(NC(=O)Nc2ccc(OC)cc2)cc1 | 29.1 µM [rising, single point] | – |
| O=C(Nc1nc(N2C(=O)c3ccccc3C2=O)n(-c2ccccc2)n1)c1ccc(F)cc1 | 35.5 µM [falling, single point] | – |
| CC(/C=C/c1ccc2c(c1)OCO2)=N/NC(=O)COc1ccc(C)cc1 | 2.91 µM [rising, single point] | – |
| CCOC(=O)c1c(NC(=O)CS(=O)(=O)c2ccc(C)cc2)sc2c1CCC(C)C2 (stereo not given) | 10 µM [rising, partial curve, poor fit] | – |
| O=C(CCCn1c(SCC(=O)c2ccc(O)c(O)c2)nc2ccccc2c1=O)NCC1CCCO1 (stereo not given) | 25.1 µM [falling, single point] | – |
| COc1cc2c(cc1OC)CN(S(=O)(=O)c1ccc(Cl)nc1)CC2 | 29.1 µM [rising, single point] | – |
| O=C(CSC1CC(=O)N(CCc2ccccc2)C1=O)Nc1ccc(Cl)cc1 (stereo not given) | 23.1 µM [falling, single point] | – |
| Cc1cccc(NC(=O)CSc2nnc(-c3n[nH]c4ccccc34)o2)c1 | 3.66 µM [rising, partial curve, poor fit] | – |
| COc1ccc(S(=O)(=O)N2CCCCC2)cc1NC(=O)CNc1ccccc1C(C)=O | 20.6 µM [falling, partial curve] | – |
| CN(N)C(=S)Nc1ccc(Cl)cc1 | 31.6 µM [rising, single point] | – |
| O=C(/C=C/c1cccs1)c1cc(Cl)ccc1OC(=O)N1CCOCC1 | – | 29.1 µM [falling, partial curve, poor fit] |
| O=C(N/N=C/c1ccc2c(c1)OCO2)c1ccc2c(c1)OCCO2 | 5.17 µM [falling, partial curve] | – |
| Cc1cccc(Nc2ncnc3ccc(Br)cc23)c1 | 17.8 µM [falling, partial curve, poor fit] | – |
| CCOc1cc(N2CCOCC2)c(OCC)cc1NC(=O)c1cccc(N(C)C)c1 | 6.31 µM [rising, partial curve, poor fit] | – |
| CC(C)(C)C(=O)Nc1ccccc1N1CCN(C(=O)c2ccc(Cl)cc2)CC1 | 5.8 µM [falling, partial curve, poor fit] | – |
| O=C1C(Cc2ccc(O)cc2)NC(=S)N1c1ccccc1 (stereo not given) | 2 µM [rising, partial curve, poor fit] | – |
| O=C(O)c1nn(-c2cccc(Cl)c2)c(=O)cc1O | 7.94 µM [falling, partial curve, poor fit] | – |
| CCCNc1c(NS(=O)(=O)c2ccc(C)cc2C)c(=O)oc2ccccc12 | 8.91 µM [falling, partial curve, poor fit] | – |

| SMILES | AC50 [1] | AC50 [2] |
| --- | --- | --- |
| O=C1Nc2ccc(Br)cc2C1=Nc1cccnc1 | 35.5 µM [rising, partial curve, poor fit] | 22.4 µM [falling, single point] |
| CN1C/C(=C/c2cccnc2)C(=O)/C(=C/c2cccnc2)C1 | 29.1 µM [falling, single point] | – |
| Cc1cc(C)c2c(N)c(C(=O)NCC3CCCCC3)sc2n1 | 0.0461 µM [rising, full curve, poor fit] | – |
| O=C(/C(C=Nc1ccc(Br)cc1)=C(/O)c1ccco1)C(F)(F)F | 18.4 µM [falling, single point] | – |
| CC(C)CCNC(=O)c1ccc(C2SCC(=O)N2Cc2ccco2)cc1 (stereo not given) | 23.1 µM [rising, partial curve, poor fit] | – |
| Cc1ccc(C(=O)c2coc3cc([N+](=O)[O-])c(O)c([N+](=O)[O-])c23)cc1 | 20.6 µM [rising, single point] | 4.11 µM [rising, full curve, poor fit] |
| CCOC(=O)CSC1=C(C#N)C(c2ccco2)C(C(=O)Nc2cccc(C(F)(F)F)c2)=C(C)N1 (stereo not given) | 29.1 µM [rising, single point] | – |
| COc1ccc(CNc2nc(S(=O)(=O)c3ccccc3)c(Cl)s2)cc1OC | 16.4 µM [falling, partial curve, poor fit] | – |
| C=CCN=C1S/C(=C\c2ccc(Cl)cc2)C(=O)N1CC=C | 7.94 µM [rising, partial curve, poor fit] | – |
| S=c1nc[nH]c2c1cnn2-c1ccccc1 | 10 µM [falling, partial curve, poor fit] | – |
| CC(=O)N1c2ccc(S(=O)(=O)NCC3CCC(C(=O)N4CCCC(C)C4)CC3)cc2CC1C (stereo not given) | 12.6 µM [rising, partial curve] | – |
| Cn1c(CCNC(=O)c2ccccc2)nc2cc(NC(=O)C3CCCCC3)ccc21 | 32.6 µM [rising, partial curve, poor fit] | – |
| COc1ccc(C(=O)Nc2ccccc2C(N)=O)cc1 | 16.4 µM [falling, partial curve] | – |
| Cc1oc(-c2ccccc2F)nc1CS(=O)(=O)CC(=O)N1CCOCC1 | 32.6 µM [rising, single point] | – |
| O=C(Nc1ccccc1N1CCN(C(=O)c2ccccc2)CC1)c1ccc2c(c1)OCO2 | 35.5 µM [falling, single point] | – |
| COc1ccc(OC)c(S(=O)(=O)Nc2ccc(-c3ccc4nnc(C)n4n3)cc2)c1 | 8.2 µM [rising, partial curve] | 23.1 µM [falling, partial curve, poor fit] |
| Cc1ccc2c(C)nc(Nc3nc(CSc4nnc(C)s4)cc(=O)[nH]3)nc2c1 | 2.51 µM [falling, full curve] | – |
| O=[N+]([O-])c1ccc(N=NNc2ccccc2)cc1 | 0.251 µM [rising, full curve, poor fit] | – |
| CCCN1C(=O)C(O)(CC(=O)c2ccc(CC)cc2)c2cc(Br)ccc21 (stereo not given) | 35.5 µM [falling, single point] | – |
| CC1CC1c1ccc(/C=C(\C#N)C(=O)Nc2cccc(Cl)c2Cl)o1 (stereo not given) | 1.84 µM [falling, partial curve, poor fit] | – |
